PubChem BioAssay AID743454, Peter MacCallum Cancer Centre, 2014

Test: 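Search for knock-downs that restore vorinostat killing in resistant colon cancer cells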 (primary screen)
Cells: human HCT116-VR colon cancer cells, selected for vorinostat resistance
Reagent: siRNA pool against human genes, 40 nM siRNA pool
Time to read-out: vorinostat for 24 h, read-out about 72 h after transfection
Challenge: vorinostat at 2.5 µM final
Measurement: 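Cell viability by CellTiter-Fluor and caspase 3/7 activity by luminescence, each scaled to mock wells per plate, duplicates averaged, then robust z-scored over all plates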
Direction: viability robust z-score: higher = more viable cells than screen typical; caspase robust z-score: higher = more caspase 3/7 activity than screen typical
Active means: 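Hits are knock-downs in viability class RV1/RV2 or caspase class CA1/CA2, excluding ones that killed cells in the no-drug cell-count arm; hits then retested with single siRNAs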
The deposit covers about 18,000 reagents; this is an unselected part. In the full data, 450 (2.5%) are marked active. 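Single biological run; no consistent viability z cut-off exists, so the class columns, not z-scores, define the calls.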 A number with no mark means an inactive call.

Target gene	viability hit class	caspase hit class	viability robust z-score	caspase robust z-score
KRT10	no change	no change	0.46	1.24
ZNF700	no change	no change	0.2	0.9
SH3BGRL2	no change	no change	0.04	-0.76
DNAJC24	no change	no change	-0.36	-0.17
GRB7	no change	no change	1.18	-0.06
ZNF826P	no change	no change	1.51	-0.19
FOLR1	no change	no change	-1.34	0.7
TNS3	no change	no change	-0.25	-0.92
C2CD2L	no change	no change	1.07	-0.6
BTG3	no change	no change	0.28	1.36
PRB1	no change	no change	0.5	0.22
NEK7	no change (active)	CA2 (caspase activation)	-2.43	6.13
DIRAS2	no change	no change	-0.72	3.05
DTNBP1	no change	no change	-0.56	-0.2
SLC25A26	no change	no change	-1.62	2.21
PHLDB1	no change	no change	-0.18	2.31
FYTTD1	no change	no change	1.36	-0.17
WDR46	no change	no change	-2.38	-0.05
CTSZ	no change	no change	-0.52	3.2
PMS1	no change	no change	0.88	-0.24
IL23R	no change	no change	0.65	0
ZNF324B	no change	no change	-0.14	0.98
TCTA	no change	no change	2.05	-0.33
GLRX3	no change	no change	-0.68	0.4
SRRT	no change	no change	-0.36	-0.99
ENOX1	no change	no change	0.12	-0.96
C1QTNF8	no change	no change	-1.64	3.91
GTPBP2	no change	no change	0.96	0.78
TULP2	no change	no change	-0.93	1.44
SPANXA2	no change	no change	-3.14	-0.68
LINC00336	no change	no change	-0.74	-0.22
SULT4A1	no change	no change	-0.54	-0.21
STARD10	no change	no change	-1.14	1.27
ARMH4	no change	no change	1.18	0.55
B3GNT5	no change	no change	0.56	-0.96
KLHL7	no change	no change	0.12	0.32
SCEL	no change	no change	-0.26	0.76
IL17RE	no change	no change	0.17	-0.24
SDE2	no change	no change	-1.29	-0.64
UQCR10	no change	no change	0.61	1.39
ZBTB12	no change	no change	0.2	0.4
CCL2	no change	no change	-0.4	-0.52
DCUN1D5	no change	no change	0.18	-0.92
ATP6V1C2	no change	no change	-0.02	-0.36
GAPDHS	no change	no change	-0.26	-0.64
DCDC2	no change	no change	-0.47	1.25
NKIRAS1	no change	no change	0.4	0.68
MBD2	no change	no change	-2.42	1.52
GUCA2B	no change	no change	0.92	1.48
RNMT	no change	no change	0.99	-0.39
MAP3K13	no change	no change	0.3	-0.46
TBC1D10B	no change	no change	-0.12	0.26
ALX4	no change	no change	-0.89	2.94
AKAP9	no change	no change	1.3	0.34
ZNF626	no change	no change	0.51	-0.78
LPA	no change	no change	0.05	-0.04
YIPF3	no change	no change	0.02	0.29
PCSK2	no change	no change	-0.42	-0.57
BLOC1S4	no change	no change	0.02	0.5
CCDC81	no change	no change	0.21	-0.66
ZNF346	no change	no change	0.91	-0.92
GRAP	no change	no change	1.17	1.08
HDHD3	no change	no change	-0.7	0.78
TK2	no change	no change	1.86	-0.36
FLNC	no change	no change	0.34	-0.2
EOMES	no change	no change	0.72	-0.15
RNF13	no change	no change	-0.37	1.02
ZNF449	no change	no change	1.01	-0.9
AKAP10	RV2 (reduced viability) (active)	no change	-3.78	4.1
SPRR2B	no change	no change	0.2	0
ZNF648	no change	no change	-0.45	0.68
POLR3H	no change	no change	-1.47	-0.34
GRIK2	no change	no change	-0.03	-0.31

Copied from the listing, 9 entries:
Target gene	viability hit class	caspase hit class	viability robust z-score	caspase robust z-score
CCL2	no change	no change	-0.4	-0.52
DCUN1D5	no change	no change	0.18	-0.92
ATP6V1C2	no change	no change	-0.02	-0.36
GAPDHS	no change	no change	-0.26	-0.64
DCDC2	no change	no change	-0.47	1.25
NKIRAS1	no change	no change	0.4	0.68
MBD2	no change	no change	-2.42	1.52
GUCA2B	no change	no change	0.92	1.48
RNMT	no change	no change	0.99	-0.39
